The values that follow come from the supplement of paper PMC12067093, “Discovery and optimisation of a covalent ligand for TRIM25 and its application to targeted protein ubiquitination” (Chemical Science, 2025).

Chains of the proteins cited; added tags and fusions are not shown. Lines headed by an entry give the natural chain unless they say otherwise; changes in a name come on top.
UniProt Q8WVM8, whole entry, looked up: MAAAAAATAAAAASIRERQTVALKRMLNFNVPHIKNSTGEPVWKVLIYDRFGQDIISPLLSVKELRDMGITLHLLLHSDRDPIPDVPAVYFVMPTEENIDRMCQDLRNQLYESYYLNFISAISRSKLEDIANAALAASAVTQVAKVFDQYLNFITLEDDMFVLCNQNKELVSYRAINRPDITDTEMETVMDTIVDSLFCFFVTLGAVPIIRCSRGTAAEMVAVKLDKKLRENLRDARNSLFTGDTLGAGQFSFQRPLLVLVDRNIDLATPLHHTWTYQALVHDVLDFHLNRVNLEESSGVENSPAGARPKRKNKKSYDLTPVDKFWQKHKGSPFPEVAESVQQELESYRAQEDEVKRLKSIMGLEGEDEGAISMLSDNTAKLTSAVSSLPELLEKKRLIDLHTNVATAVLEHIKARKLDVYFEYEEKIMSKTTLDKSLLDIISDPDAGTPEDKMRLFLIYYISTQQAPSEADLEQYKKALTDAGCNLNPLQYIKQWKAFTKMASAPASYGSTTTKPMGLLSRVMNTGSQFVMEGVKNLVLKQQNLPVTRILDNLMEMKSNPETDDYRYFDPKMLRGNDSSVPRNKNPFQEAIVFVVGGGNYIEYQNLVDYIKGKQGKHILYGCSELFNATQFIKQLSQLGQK
UniProt O95104: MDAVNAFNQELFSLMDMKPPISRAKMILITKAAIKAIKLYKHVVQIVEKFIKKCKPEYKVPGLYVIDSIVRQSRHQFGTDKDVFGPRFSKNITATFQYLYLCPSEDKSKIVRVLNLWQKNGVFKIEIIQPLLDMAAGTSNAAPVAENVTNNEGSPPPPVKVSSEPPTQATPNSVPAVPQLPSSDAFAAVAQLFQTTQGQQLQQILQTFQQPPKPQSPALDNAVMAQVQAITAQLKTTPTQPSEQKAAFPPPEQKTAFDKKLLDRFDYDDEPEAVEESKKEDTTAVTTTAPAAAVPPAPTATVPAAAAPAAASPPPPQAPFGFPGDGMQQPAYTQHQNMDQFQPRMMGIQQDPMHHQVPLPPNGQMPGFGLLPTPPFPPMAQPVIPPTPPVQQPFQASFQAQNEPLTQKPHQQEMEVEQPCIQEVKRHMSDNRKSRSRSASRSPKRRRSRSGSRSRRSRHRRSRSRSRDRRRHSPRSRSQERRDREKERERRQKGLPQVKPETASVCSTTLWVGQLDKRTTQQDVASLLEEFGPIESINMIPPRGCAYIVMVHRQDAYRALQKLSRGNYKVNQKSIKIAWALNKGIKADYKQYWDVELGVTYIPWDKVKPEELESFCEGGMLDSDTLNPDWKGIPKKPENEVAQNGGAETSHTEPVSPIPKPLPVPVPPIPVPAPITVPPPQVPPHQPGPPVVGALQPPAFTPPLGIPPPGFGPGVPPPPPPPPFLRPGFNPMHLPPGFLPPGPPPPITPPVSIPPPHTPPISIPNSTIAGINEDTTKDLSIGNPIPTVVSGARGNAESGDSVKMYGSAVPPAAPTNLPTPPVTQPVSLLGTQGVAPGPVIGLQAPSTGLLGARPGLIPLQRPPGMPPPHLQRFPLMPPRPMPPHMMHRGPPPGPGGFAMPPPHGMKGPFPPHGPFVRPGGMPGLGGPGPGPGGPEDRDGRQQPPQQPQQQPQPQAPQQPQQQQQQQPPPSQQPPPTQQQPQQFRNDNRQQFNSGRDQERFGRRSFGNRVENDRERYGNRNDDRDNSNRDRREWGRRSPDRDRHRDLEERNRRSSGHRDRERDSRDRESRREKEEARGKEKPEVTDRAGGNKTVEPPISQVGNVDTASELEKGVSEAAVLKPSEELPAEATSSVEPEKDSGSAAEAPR
UniProt Q9Y3Z3: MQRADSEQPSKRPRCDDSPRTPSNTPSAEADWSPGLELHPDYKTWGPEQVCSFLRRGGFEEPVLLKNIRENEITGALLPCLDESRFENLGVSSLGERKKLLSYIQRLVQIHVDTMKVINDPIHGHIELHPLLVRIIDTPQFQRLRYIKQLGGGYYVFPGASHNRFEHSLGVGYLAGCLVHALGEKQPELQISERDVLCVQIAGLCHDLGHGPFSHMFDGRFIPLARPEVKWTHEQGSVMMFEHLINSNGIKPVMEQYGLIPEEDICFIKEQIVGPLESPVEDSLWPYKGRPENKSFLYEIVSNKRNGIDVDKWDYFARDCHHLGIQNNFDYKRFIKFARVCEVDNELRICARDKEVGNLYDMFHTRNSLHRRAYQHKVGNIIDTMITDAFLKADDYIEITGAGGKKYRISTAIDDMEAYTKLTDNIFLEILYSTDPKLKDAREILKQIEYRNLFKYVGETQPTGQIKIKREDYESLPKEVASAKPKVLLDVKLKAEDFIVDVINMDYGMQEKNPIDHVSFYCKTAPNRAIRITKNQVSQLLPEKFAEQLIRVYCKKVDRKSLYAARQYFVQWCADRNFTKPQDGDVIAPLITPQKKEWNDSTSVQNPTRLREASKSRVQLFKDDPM
UniProt O95487: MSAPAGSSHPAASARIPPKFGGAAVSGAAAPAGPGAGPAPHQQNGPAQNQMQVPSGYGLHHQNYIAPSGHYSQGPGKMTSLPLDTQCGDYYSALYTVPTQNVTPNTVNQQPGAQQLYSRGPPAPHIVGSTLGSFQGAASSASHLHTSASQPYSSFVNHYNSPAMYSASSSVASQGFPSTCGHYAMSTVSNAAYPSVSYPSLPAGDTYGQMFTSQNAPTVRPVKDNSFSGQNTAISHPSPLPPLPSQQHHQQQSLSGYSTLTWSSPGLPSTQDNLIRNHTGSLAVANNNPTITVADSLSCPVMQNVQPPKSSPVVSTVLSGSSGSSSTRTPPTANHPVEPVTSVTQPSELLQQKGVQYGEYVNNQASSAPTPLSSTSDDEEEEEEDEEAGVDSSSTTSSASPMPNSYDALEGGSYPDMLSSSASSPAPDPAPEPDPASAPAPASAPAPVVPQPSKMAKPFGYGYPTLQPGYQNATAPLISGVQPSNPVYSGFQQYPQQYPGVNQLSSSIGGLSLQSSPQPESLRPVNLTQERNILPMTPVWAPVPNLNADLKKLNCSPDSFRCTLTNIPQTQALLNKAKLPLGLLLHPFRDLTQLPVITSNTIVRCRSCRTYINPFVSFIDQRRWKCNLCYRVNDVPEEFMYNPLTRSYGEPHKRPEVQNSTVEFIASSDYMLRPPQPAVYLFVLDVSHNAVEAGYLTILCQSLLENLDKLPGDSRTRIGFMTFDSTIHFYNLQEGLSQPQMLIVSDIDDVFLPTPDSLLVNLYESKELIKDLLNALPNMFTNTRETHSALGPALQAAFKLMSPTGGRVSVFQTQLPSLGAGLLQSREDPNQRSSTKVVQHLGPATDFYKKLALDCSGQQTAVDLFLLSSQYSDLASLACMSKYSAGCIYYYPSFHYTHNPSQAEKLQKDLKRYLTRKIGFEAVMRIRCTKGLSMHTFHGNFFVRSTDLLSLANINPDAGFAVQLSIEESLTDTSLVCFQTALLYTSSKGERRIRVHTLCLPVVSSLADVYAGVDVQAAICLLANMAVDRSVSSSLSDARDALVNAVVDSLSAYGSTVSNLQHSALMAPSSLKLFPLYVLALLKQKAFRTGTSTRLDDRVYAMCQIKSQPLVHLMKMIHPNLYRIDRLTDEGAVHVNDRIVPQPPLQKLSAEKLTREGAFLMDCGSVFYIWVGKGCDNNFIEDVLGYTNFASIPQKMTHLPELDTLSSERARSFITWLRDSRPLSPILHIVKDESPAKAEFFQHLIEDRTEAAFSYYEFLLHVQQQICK
UniProt Q9Y6U3: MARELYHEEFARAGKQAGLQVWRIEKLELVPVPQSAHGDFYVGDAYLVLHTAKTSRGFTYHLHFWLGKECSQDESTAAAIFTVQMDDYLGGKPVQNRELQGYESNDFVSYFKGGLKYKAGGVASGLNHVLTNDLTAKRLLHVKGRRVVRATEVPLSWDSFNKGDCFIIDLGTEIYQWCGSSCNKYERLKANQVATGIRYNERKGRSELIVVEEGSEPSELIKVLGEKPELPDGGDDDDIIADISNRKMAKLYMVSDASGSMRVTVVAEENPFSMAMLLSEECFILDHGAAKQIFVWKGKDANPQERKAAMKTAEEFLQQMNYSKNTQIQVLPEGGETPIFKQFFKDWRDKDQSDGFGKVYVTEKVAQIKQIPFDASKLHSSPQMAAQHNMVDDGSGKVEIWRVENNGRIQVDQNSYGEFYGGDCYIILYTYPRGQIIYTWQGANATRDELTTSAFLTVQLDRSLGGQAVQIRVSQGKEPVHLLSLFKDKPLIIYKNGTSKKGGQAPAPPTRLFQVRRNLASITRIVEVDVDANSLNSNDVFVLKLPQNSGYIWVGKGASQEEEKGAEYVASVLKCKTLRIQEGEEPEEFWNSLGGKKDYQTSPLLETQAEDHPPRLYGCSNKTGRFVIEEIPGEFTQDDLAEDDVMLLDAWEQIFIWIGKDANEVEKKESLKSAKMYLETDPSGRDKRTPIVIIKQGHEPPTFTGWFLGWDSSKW
UniProt P31040: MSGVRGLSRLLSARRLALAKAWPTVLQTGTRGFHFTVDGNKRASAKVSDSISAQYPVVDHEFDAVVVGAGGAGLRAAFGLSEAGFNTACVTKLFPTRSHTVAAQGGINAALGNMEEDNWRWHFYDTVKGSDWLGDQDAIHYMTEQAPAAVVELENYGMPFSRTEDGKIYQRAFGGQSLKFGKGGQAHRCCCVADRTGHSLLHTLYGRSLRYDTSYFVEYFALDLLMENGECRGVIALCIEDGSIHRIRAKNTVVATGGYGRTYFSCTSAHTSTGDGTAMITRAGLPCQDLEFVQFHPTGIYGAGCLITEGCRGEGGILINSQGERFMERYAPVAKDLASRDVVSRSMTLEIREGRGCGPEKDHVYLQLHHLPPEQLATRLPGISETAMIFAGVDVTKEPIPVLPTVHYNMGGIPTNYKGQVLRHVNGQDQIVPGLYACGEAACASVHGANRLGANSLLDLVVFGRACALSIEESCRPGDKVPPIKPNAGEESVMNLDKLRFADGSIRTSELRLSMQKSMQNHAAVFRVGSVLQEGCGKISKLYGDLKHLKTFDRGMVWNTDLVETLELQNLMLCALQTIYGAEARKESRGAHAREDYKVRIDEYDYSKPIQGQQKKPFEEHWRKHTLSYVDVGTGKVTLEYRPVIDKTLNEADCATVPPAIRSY
UniProt Q9GZR1: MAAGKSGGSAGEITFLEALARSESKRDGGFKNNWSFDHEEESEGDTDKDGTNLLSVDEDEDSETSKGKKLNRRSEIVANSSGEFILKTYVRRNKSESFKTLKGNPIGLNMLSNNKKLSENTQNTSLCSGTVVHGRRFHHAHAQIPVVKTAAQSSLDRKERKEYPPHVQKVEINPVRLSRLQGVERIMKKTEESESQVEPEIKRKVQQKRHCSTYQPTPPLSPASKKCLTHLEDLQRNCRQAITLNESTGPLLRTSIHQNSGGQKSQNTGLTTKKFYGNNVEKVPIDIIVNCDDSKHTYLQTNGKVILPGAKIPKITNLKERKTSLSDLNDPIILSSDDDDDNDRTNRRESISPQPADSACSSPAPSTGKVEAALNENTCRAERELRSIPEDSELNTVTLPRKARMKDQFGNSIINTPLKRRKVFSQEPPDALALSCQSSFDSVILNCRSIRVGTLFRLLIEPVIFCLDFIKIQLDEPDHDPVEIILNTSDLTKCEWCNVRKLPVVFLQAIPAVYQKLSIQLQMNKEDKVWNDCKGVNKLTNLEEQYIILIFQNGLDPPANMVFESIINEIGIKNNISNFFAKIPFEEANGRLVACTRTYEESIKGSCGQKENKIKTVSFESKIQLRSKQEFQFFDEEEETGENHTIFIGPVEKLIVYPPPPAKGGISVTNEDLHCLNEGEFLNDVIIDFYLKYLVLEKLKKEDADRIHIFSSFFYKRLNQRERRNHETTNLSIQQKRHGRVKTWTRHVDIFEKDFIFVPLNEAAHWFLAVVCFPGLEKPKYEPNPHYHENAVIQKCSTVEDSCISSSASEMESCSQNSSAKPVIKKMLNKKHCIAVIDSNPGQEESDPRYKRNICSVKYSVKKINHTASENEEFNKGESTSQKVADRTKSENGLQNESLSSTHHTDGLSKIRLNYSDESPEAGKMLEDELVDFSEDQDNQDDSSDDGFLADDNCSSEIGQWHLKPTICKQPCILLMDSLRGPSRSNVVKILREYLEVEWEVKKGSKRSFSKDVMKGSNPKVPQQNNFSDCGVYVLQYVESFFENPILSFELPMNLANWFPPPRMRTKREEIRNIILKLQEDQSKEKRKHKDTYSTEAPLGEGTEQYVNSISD
UniProt O75845: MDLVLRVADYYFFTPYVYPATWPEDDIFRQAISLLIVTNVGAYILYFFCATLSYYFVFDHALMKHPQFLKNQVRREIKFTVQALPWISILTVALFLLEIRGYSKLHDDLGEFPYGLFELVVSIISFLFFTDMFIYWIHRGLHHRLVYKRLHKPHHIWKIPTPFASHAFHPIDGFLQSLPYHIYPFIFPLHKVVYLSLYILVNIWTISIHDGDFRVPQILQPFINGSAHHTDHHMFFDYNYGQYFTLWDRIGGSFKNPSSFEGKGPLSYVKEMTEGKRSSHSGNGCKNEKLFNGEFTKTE

The other results are listed elsewhere or left out.

Compound in the test: CC1Cc2ccccc2N1C(=O)C1CCCN(C1)C(=O)CCl (mixture of isomers) [TRIM25 ligand 11 (diastereomer mixture)]
Put plainly: probe-labelled cysteine peptide fold change vs DMSO (competition) (log2 fold change); higher = less target engagement (more negative = stronger competition). The conditions noted are these: THP-1, incubation time: 4 h.
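Note: competitive chemoproteomic profiling in live THP-1 cells with an iodoacetamide desthiobiotin (IA-DTB) probe, comparing probe-labelled peptide intensities in compound-treated cells against DMSO-treated controls.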

Take “SEC31A_O94979_704_LVACWTK (UniProt O94979)”: the “probe-labelled cysteine peptide fold change” value (10 µM) came out at 0.00186 and the “probe-labelled cysteine peptide fold change” value (50 µM) was found to be 0.147.
The like results for “SCFD1_Q8WVM8_623_HILYGCSELFNATQFIK (UniProt Q8WVM8)” were, in that order, 0.017 and -0.00461.
For the target “SEC24C_P53992_448_FQCCFCSCINDVPPQYFQHLDHTGKR (UniProt P53992)”, the “probe-labelled cysteine peptide fold change” value reads like this: (10 µM) -0.0515; (50 µM) 0.139.
Consider “SART3_Q15020_114_NQLEIERLEEQLSINVYDYNCHVDLIR (UniProt Q15020)”, for which the “probe-labelled cysteine peptide fold change” value is -0.0694 (10 µM) and 0.123 (50 µM).
The matching figures for “SEC23B_Q15437_180_MVQVHELSCEGISK (UniProt Q15437)”: 0.14 and 0.106.
Turning to “SCARB2_Q14108_274_DEVLYVFPSDFCR (UniProt Q14108)”, the “probe-labelled cysteine peptide fold change” value was -0.0336 (10 µM) and -0.11 (50 µM).
The matching figures for “SATB1_Q01826_209_ECPLSQSMISSIVNSTYYANVSAAK (UniProt Q01826)”: 0.0445 and -0.102.
Regarding “SDSL_Q96GA7_276_MLVEPACGAALAAIYSGLLR (UniProt Q96GA7)”, the “probe-labelled cysteine peptide fold change” value is -0.186 (10 µM) and 0.128 (50 µM).
The matching figures for “SATB1_Q01826_78_KGTMLPVFCVVEHYENAIEYDCK (UniProt Q01826)”: 0.321 and 0.323.
With “SCAF4_O95104_506_GLPQVKPETASVCSTTLWVGQLDKR (UniProt O95104)”, the “probe-labelled cysteine peptide fold change” value (10 µM) is -0.0494 and the “probe-labelled cysteine peptide fold change” value (50 µM) is -0.0244.
The matching figures for “SAMHD1_Q9Y3Z3_80_NIRENEITGALLPCLDESR (UniProt Q9Y3Z3)”: -0.0562 and -0.107.
The like results for “SEC24B_O95487_887_YSAGCIYYYPSFHYTHNPSQAEK (UniProt O95487)” were, in that order, 0.267 and -0.0661.
Take “SEMA4A_Q9H3S1_547_GNPEWACASGPMSR (UniProt Q9H3S1)”: the “probe-labelled cysteine peptide fold change” value by setting is: (10 µM) -0.0856; (50 µM) 0.0126.
The like results for “SEC23IP_Q9Y6Y8_814_IDENYSLPTCK (UniProt Q9Y6Y8)” were, in that order, 0.128 and 0.00562.
For the target “SCP2_P22307_115_QLIQGGVAECVLALGFEK (UniProt P22307)”, the “probe-labelled cysteine peptide fold change” value (10 µM) was -2.21 and the “probe-labelled cysteine peptide fold change” value (50 µM) is -2.14.
As to “SCIN_Q9Y6U3_619_LYGCSNK (UniProt Q9Y6U3)”, the “probe-labelled cysteine peptide fold change” value (10 µM) is 0.0224 and the “probe-labelled cysteine peptide fold change” value (50 µM) stood at 0.0629.
For the target “SEC61A1_P61619_13_FLEVIKPFCVILPEIQKPER (UniProt P61619)”, the “probe-labelled cysteine peptide fold change” value (10 µM) was -0.104 and the “probe-labelled cysteine peptide fold change” value (50 µM) was -0.189.
With “SCRIB_Q14160_334_LTNLNVDRNHLEALPPEIGGCVALSVLSLR (UniProt Q14160)”, the “probe-labelled cysteine peptide fold change” value by setting is: (10 µM) -0.0494; (50 µM) -0.0286.
On to “SAMHD1_Q9Y3Z3_341_VCEVDNELR (UniProt Q9Y3Z3)”, for which the “probe-labelled cysteine peptide fold change” value (10 µM) worked out at 0.0414 and the “probe-labelled cysteine peptide fold change” value (50 µM) turned out to be 0.44.
The matching figures for “SBF1_O95248_987_SCTFQLLK (UniProt O95248)”: -0.0361 and 0.064.
In the case of “SDCBP_O00560_166_FGDQVLQINGENCAGWSSDK (UniProt O00560)”, the “probe-labelled cysteine peptide fold change” value was -0.0251 (10 µM) and 0.0173 (50 µM).
The like results for “SAP30_O75446_112_HLYICDYHK (UniProt O75446)” were, in that order, 0.0172 and 0.0453.
Turning to “SAR1A_Q9NR31_178_PMEVFMCSVLK (UniProt Q9NR31)”, the “probe-labelled cysteine peptide fold change” value reads like this: (10 µM) -0.0376; (50 µM) -0.0221.
The like results for “SDHA_P31040_438_HVNGQDQIVPGLYACGEAACASVHGANR (UniProt P31040)” were, in that order, 0.121 and -0.0746.
As to “SATB1_Q01826_78_KGTMLPVFCVVEHYENAIEYDCKEEHAEFVLVR (UniProt Q01826)”, the “probe-labelled cysteine peptide fold change” value was -0.0424 (10 µM) and -0.0291 (50 µM).
The matching figures for “SDHB_P21912_249_CHTIMNCTR (UniProt P21912)”: -0.0566 and 0.201.
The like results for “SENP6_Q9GZR1_127_KLSENTQNTSLCSGTVVHGR (UniProt Q9GZR1)” were, in that order, -0.0216 and -0.0121.
“SEC23A_Q15436_180_MVQVHELGCEGISK (UniProt Q15436)”: the “probe-labelled cysteine peptide fold change” value runs as follows: (10 µM) 0.0868; (50 µM) 0.0113.
The like results for “SATB1_Q01826_78_GTMLPVFCVVEHYENAIEYDCKEEHAEFVLVRK (UniProt Q01826)” were, in that order, -0.205 and 0.0349.
The matching figures for “SEC13_P55735_153_KINNAHTIGCNAVSWAPAVVPGSLIDHPSGQKPNYIK (UniProt P55735)”: 0.0248 and -0.301.
The like results for “SDHA_P31040_654_TLNEADCATVPPAIR (UniProt P31040)” were, in that order, 0.0204 and -0.209.
On to “SAMSN1_Q9NSI8_165_LDDDGPYSGPFCGR (UniProt Q9NSI8)”, for which the “probe-labelled cysteine peptide fold change” value is, setting by setting: (10 µM) 0.178; (50 µM) 0.239.
For the target “SAMHD1_Q9Y3Z3_320_DCHHLGIQNNFDYK (UniProt Q9Y3Z3)”, the “probe-labelled cysteine peptide fold change” value was 0.0717 (10 µM) and 0.0765 (50 µM).
The like results for “SDK1_Q7Z5N4_126_LVLTCLAEGSWPLEFK (UniProt Q7Z5N4)” were, in that order, 0.167 and 0.115.
With “SASS6_Q6UVJ0_94_FIDLLQQCTQEHAK (UniProt Q6UVJ0)”, the “probe-labelled cysteine peptide fold change” value stood at 0.0471 (10 µM) and 0.0533 (50 µM).
The like results for “SAMHD1_Q9Y3Z3_266_PVMEQYGLIPEEDICFIK (UniProt Q9Y3Z3)” were, in that order, 0.232 and 0.153.
The matching figures for “SDHA_P31040_89_AAFGLSEAGFNTACVTK (UniProt P31040)”: -0.0242 and -0.0133.
The like results for “SBDS_Q9Y3A5_210+216_VIESEDYGQQLEIVCLIDPGCFR (UniProt Q9Y3A5)” were, in that order, 0.0314 and -0.236.
Consider “SEC24B_O95487_1175_GCDNNFIEDVLGYTNFASIPQK (UniProt O95487)”, for which the “probe-labelled cysteine peptide fold change” value was 0.0861 (10 µM) and 0.0767 (50 µM).
As for “SEC16A_O15027_1451_FSVPHVCAR (UniProt O15027)”, the “probe-labelled cysteine peptide fold change” value reads like this: (10 µM) -0.0536; (50 µM) 0.00451.
“SAP130_Q9H0E3_951_VHLCAAQLLQLTNLEHDVYER (UniProt Q9H0E3)”: the “probe-labelled cysteine peptide fold change” value reads like this: (10 µM) -0.122; (50 µM) -0.135.
As to “SC5D_O75845_285_SSHSGNGCK (UniProt O75845)”, the “probe-labelled cysteine peptide fold change” value is -0.0733 (10 µM) and -0.341 (50 µM).
